Laboratory results from PubChem BioAssay AID493014 (National Center for Advancing Translational Sciences (NCATS), 2011).
The other results are listed elsewhere or left out. These are further read-outs of the screen, such as a control signal, another cell line or another target. No call is given for them. The list favours compounds with an active or inconclusive main result. Potencies come from curve fits of mixed quality, noted in brackets.

Assay: qHTS Assay to Find Inhibitors of Chronic Active B-Cell Receptor Signaling
Settings: ABC-DLBCL IkBa-CBG/CBR reporter, luminescence ratio (green luciferase fused to IkBa over red control in TMD8 lymphoma cells), 4 h
Method in brief: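 TMD8 human ABC-DLBCL cells with doxycycline-inducible IκBα–green luciferase fusion and unfused red luciferase, in 0.5% FBS medium; compounds up to 46 uM, 4 h at 37C. Green/red luminescence ratio, filter-overlap corrected, fitted to concentration-response curves.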

[1] = measured here: CBR red luminescence, cell number
[2] = measured here: IkBa-CBG green luminescence

| SMILES | AC50 [1] | AC50 [2] |
| --- | --- | --- |
| CCOC(=O)c1c(C)n(C)c2ccc(OC)c(NC(=O)CN3CCN(C(=O)c4ccco4)CC3)c12 | 10 µM [rising, partial curve] | 10 µM [falling, partial curve] |
| COc1ccc(NS(=O)(=O)c2ccc3ccccc3c2)c2ncccc12 |  | 3.55 µM [falling, partial curve, poor fit] |
| Cc1cccc(NC(=O)c2ccc(F)c(S(=O)(=O)N(C)C3CCCCC3)c2)c1 | 17.8 µM [falling, partial curve, poor fit] | 17.8 µM [rising, single point] |
| Clc1ccccc1CN(Cc1ccco1)Cc1nnnn1C1CCCC1 | 20.6 µM [falling, partial curve, poor fit] |  |
| CN1CCN(C(=O)c2ccccc2N(Cc2ccccc2)S(C)(=O)=O)CC1 | 2.59 µM [rising, single point] |  |
| O=Cc1[nH]c2ccccc2c1N(C(=O)CCl)c1ccc([N+](=O)[O-])cc1 | 35.5 µM [falling, single point] | 12.6 µM [rising, partial curve, poor fit] |
| Cc1cc(NC(=O)CSc2nnc(-c3ccc(S(=O)(=O)N4CCCC4)cc3)n2C)no1 | 20 µM [rising, single point] |  |
| Cc1ccc2cc(CCNC(=O)C3CCCC3)c(=O)[nH]c2c1 | 2.06 µM [rising, full curve, poor fit] |  |
| COc1cc(/C=N/Nc2nc3ccccc3s2)ccc1O | 15.8 µM [falling, single point] |  |
| CC(=O)c1sc(NC(=O)c2cc(=O)c3ccccc3o2)nc1C | 0.355 µM [falling, full curve] |  |
| O=C(Cc1ccccc1)Nc1nnc(-c2cccc([N+](=O)[O-])c2)s1 | 16.4 µM [rising, single point] |  |
| COc1ccc(S(=O)(=O)N2CCN=C2SCc2cccc(C)c2)cc1 | 6.31 µM [rising, full curve] |  |
| CCC(C(=O)OCC(=O)c1ccc(OC)cc1OC)c1ccccc1 (configuration not stated) | 20.6 µM [rising, partial curve, poor fit] |  |
| Cc1cc2ncc(-c3cccs3)nc2cc1C | 4.47 µM [rising, partial curve] |  |
| C[C@]12CC[C@@H]3c4ccc(O)cc4CC[C@H]3[C@@H]1CC[C@@H]2O | 16.4 µM [rising, single point] | 16.4 µM [falling, single point] |
| Fc1ccc(C2c3cccn3CCN2C(=S)Nc2cccc(F)c2)cc1 (configuration not stated) | 20 µM [falling, single point] |  |
| CCOC(=O)c1[nH]c(C)c(C(=O)OCC(=O)NC(=O)NC(C)(C)C)c1C | 2.91 µM [falling, full curve, poor fit] |  |
| COc1ccccc1/C=C/[C@@H]1C[C@H]2CN(Cc3cccc(Cl)c3)C(=O)[C@]23CCCN13 | 11.2 µM [falling, partial curve, poor fit] |  |
| C=CCc1ccc(OCCOc2ccc(/C=N/n3cnnc3)cc2OCC)c(OC)c1 |  | 20.6 µM [falling, partial curve, poor fit] |
| O=S(=O)(Nc1cccc(CCc2ccccn2)c1)c1ccc(Cl)cc1 | 5.01 µM [falling, single point] |  |
| Cc1cc(C)n2c(SCCO)nnc2n1 | 1 µM [falling, partial curve, poor fit] |  |

Four of the compounds above, with bars between the fields.
SMILES | AC50 [1] | AC50 [2]
O=C(Cc1ccccc1)Nc1nnc(-c2cccc([N+](=O)[O-])c2)s1 | 16.4 µM [rising, single point] | 
COc1ccc(S(=O)(=O)N2CCN=C2SCc2cccc(C)c2)cc1 | 6.31 µM [rising, full curve] | 
CCC(C(=O)OCC(=O)c1ccc(OC)cc1OC)c1ccccc1 (configuration not stated) | 20.6 µM [rising, partial curve, poor fit] | 
Cc1cc2ncc(-c3cccs3)nc2cc1C | 4.47 µM [rising, partial curve] | 

Continuation:

| SMILES | AC50 [1] | AC50 [2] |
| --- | --- | --- |
| O=C(NCC1CCCO1)C(c1cccs1)N(Cc1cccs1)C(=O)c1ccc(-c2ccccc2)[nH]1 (configuration not stated) | 32.6 µM [falling, single point] |  |
| O=c1c2c3c(sc2nc(NCCO)n1CCc1ccccc1)CCCCC3 | 13 µM [rising, partial curve, poor fit] |  |
| COc1ccccc1NS(=O)(=O)c1ccc(C)c(NC(=O)NCCCl)c1 | 31.6 µM [falling, single point] |  |
| Cc1cccc(-c2nsc(SCC(=O)c3ccc(Cl)cc3)n2)c1 | 32.6 µM [rising, single point] |  |
| N#CCCN(C(=O)COC(=O)CCc1nc2ccccc2c(=O)[nH]1)c1ccc(F)cc1 | 20.6 µM [falling, single point] |  |
| CC(CCc1ccccc1)NC(=O)COC(=O)c1ccc(NC(=O)CC#N)cc1 (configuration not stated) | 35.5 µM [falling, single point] |  |
| O=C(Nc1ccccc1)c1cc([N+](=O)[O-])ccc1Cl | 0.112 µM [falling, full curve, poor fit] |  |
| CCn1c(=O)c(C(=O)Nc2ccccc2C)c(O)c2ccccc21 | 0.116 µM [falling, full curve, poor fit] |  |
| COc1ccc(NC(=O)CNc2ccc(C#N)cc2)cc1 | 22.4 µM [falling, single point] |  |
| COc1cc(NC(=S)N(C)C)c(OC)cc1Cl | 3.98 µM [falling, partial curve, poor fit] |  |
| O=C(c1c[nH]c2ccccc12)C(Cl)c1ccccc1 (configuration not stated) | 4.47 µM [falling, partial curve, poor fit] |  |
| COc1cccc(N=c2oc3ccccc3cc2-c2nc3ccccc3[nH]2)c1 | 7.94 µM [falling, partial curve, poor fit] |  |
| CCOc1ccc(NCc2ccccc2OCc2cccc(F)c2)cc1 |  | 23.1 µM [falling, partial curve, poor fit] |
| Brc1ccc(-c2cn3cccnc3n2)cc1 | 1.03 µM [rising, full curve] |  |
| CCOC(=O)c1ccc(N2CN(CC)CNC2=S)cc1 |  | 16.4 µM [falling, partial curve, poor fit] |
| N#Cc1c(NC(=S)NC(=O)c2ccccc2)sc2c1CCN(CCc1ccccc1)C2 | 2.06 µM [rising, partial curve] |  |
| Cc1cccc2cc(-c3ccccc3)c(-c3ccccc3)c[n+]12 | 6.51 µM [falling, partial curve, poor fit] |  |
| COC(CNC(=O)c1ccc2nc(-c3cccs3)c(-c3cccs3)nc2c1)OC | 0.651 µM [rising, partial curve, poor fit] |  |
| O=C(Nc1ccn(Cc2ccccc2F)n1)c1ccc(COc2cc(Cl)ccc2Cl)o1 | 6.31 µM [falling, partial curve] |  |
| COc1ccc(CCNC(=O)COc2ccc3c(C)cc(=O)oc3c2)cc1 | 32.6 µM [rising, single point] |  |
| Clc1ccc(Cn2ccc3ccccc32)cn1 | 22.4 µM [rising, partial curve, poor fit] |  |

| SMILES | AC50 [1] | AC50 [2] |
| --- | --- | --- |
| O=C(COc1cccc(Br)c1)N/N=C1\CCCc2ccccc21 | 15.8 µM [rising, partial curve, poor fit] |  |
| COc1ccc(-n2c(C)nnc2SCC(=O)NC2CC2)cc1 | 5.01 µM [rising, partial curve, poor fit] |  |
| COc1ccccc1CNc1nc(SC)ncc1CO | 20.6 µM [rising, partial curve, poor fit] |  |
| O=C(NCc1ccncc1)C(=O)Nc1nc(C23CC4CC(CC(C4)C2)C3)cs1 | 29.1 µM [falling, single point] |  |
| C=CCN(C(=O)Nc1ccc(Cl)cc1)C1CC(=O)N(c2ccc(OC)cc2)C1=O (configuration not stated) | 0.411 µM [rising, partial curve, poor fit] |  |
| COc1ccc(OC)c(NC(=O)c2ccccc2NS(=O)(=O)c2cccc3cccnc23)c1 | 29.1 µM [rising, single point] |  |
| O=C(O)CSCC(=O)Nc1ccc(-c2nc3ccccc3s2)cc1 | 11.2 µM [falling, partial curve] |  |
| O=C(NCSc1ccccc1)c1ccccc1 | 3.26 µM [rising, partial curve, poor fit] |  |
| COc1ccc(NC(=O)C2=Cc3cccc(OC)c3OC2)cc1 | 10 µM [falling, partial curve, poor fit] |  |
| CN1c2ccccc2-c2nc3ccccc3n2C1c1ccncc1 (configuration not stated) | 14.6 µM [falling, partial curve, poor fit] |  |
| Cc1ccc(-c2nnn3c2nc(Cl)c2ccccc23)cc1 | 4.47 µM [falling, partial curve] |  |
| Cc1ccc(NS(=O)(=O)c2ccc3c(c2)NC(=O)CCS3)cc1C | 35.5 µM [falling, partial curve, poor fit] |  |
| N#CC(C#N)=C1C=CC=CN1/C(=C\c1ccco1)C(=O)c1ccccc1 | 9.2 µM [falling, partial curve] |  |
| CC(=O)Oc1ccc(/C=C(\NC(=O)c2ccco2)C(=O)NCc2ccco2)cc1 | 11.2 µM [rising, partial curve, poor fit] |  |
| CCOc1ccccc1NC(=O)CSc1nccn1-c1ccccc1 | 18.4 µM [falling, single point] |  |
| COc1ccc2nc(N3C(=O)CNC3=S)sc2c1 | 1.41 µM [rising, full curve] |  |
| CN(c1ccc(C(=O)NCC2CCCO2)cc1)S(C)(=O)=O (configuration not stated) | 0.103 µM [falling, full curve, poor fit] |  |
| COc1cccc(-c2ncc3ccccc3c2COC(=O)c2cccc(Br)c2)c1 | 0.92 µM [falling, full curve, poor fit] |  |
| CC(C)(C)c1nnc(N/N=C/c2ccc(Br)cc2)n(N)c1=O | 1.3 µM [rising, full curve, poor fit] |  |
| CN(Cc1ccccc1)c1nc(N)nc(Cl)c1C=O | 11.2 µM [falling, single point] |  |
| COC(=O)c1ccc(CSc2nc3ccccc3c(=O)n2CC(C)C)o1 | 15.8 µM [rising, single point] |  |

In a second layout: results already given.
SMILES,AC50 [1],AC50 [2]
C=CCc1ccc(OCCOc2ccc(/C=N/n3cnnc3)cc2OCC)c(OC)c1,,"20.6 µM [falling, partial curve, poor fit]"
O=S(=O)(Nc1cccc(CCc2ccccn2)c1)c1ccc(Cl)cc1,"5.01 µM [falling, single point]",
